Experimental data taken from PubChem BioAssay AID330 (DTP/NCI, 2004).
The list does not hold the whole screen: it gathers tests that were run many times, whatever their T/C, doses with no T/C, and many T/C values between a quarter and a half above the control. Further doses and runs are listed elsewhere. T/C: endpoint of the treated group in % of that of the vehicle group. Some entries give survivors of the animals treated and no T/C: the source files T/C as zero there, which appears to mark a toxic dose or a test without result, not a measured value. Some doses without a T/C left all or most animals alive at the check, yet need not have been tolerated: the source hardly ever lists a survival T/C far under the control, and the zero likely stands for such cases as well. Survivors were counted at the toxicity check, usually on the fifth day, unless a day is given; later deaths do not show. Schedules are NCI's codes, taken here to give the interval after Q, in days (D) or hours (H), and the number of doses after X. Where survival is the endpoint, this PubChem deposit counts one and a half times the control or more as active, and values a quarter to a half above the control carry no call in these data; other NCI protocols may use other cut-offs.

Tested on: P388 leukemia ip, CD2F1 mice, survival T/C
Experiment: NCI In Vivo Anticancer Drug Screen. Data for tumor model P388 Leukemia (intraperitoneal) in CD2F1 (CDF1) mice
Conditions: T/C endpoint: median survival time, higher T/C = longer survival
[1] = dose: 200.0 mg/kg/injection, schedule: Q01DX005 (ip), vehicle: saline with Tween-80
[2] = dose: 50.0 mg/kg/injection, schedule: Q01DX009 (ip), vehicle: saline
[3] = dose: 100.0 mg/kg/injection, schedule: Q01DX009 (ip), vehicle: saline with Tween-80
[4] = dose: 200.0 mg/kg/injection, schedule: Q01DX009 (ip), vehicle: saline with Tween-80
[5] = dose: 200.0 mg/kg/injection, schedule: Q01DX005 (ip), vehicle: Klucel (hydroxypropylcellulose) (HPC)
[6] = dose: 240.0 mg/kg/injection, schedule: Q01DX005 (ip), vehicle: saline with Tween-80
[7] = dose: 50.0 mg/kg/injection, schedule: Q01DX009 (ip), vehicle: saline with Tween-80

SMILES: Cc1cc(=O)[nH]c2c1C(=O)c1c(C)cc(=O)n(C)c1C2=O
- survivor count (dose: 0.12 mg/kg/injection, schedule: Q01DX009 (ip), vehicle: DMSO): 6 of 6
- survivor count (dose: 0.25 mg/kg/injection, schedule: Q01DX009 (ip), vehicle: DMSO): 6 of 6
- survivor count (dose: 0.5 mg/kg/injection, schedule: Q01DX009 (ip), vehicle: DMSO): 6 of 6
- survivor count (dose: 1.0 mg/kg/injection, schedule: Q01DX009 (ip), vehicle: DMSO): 6 of 6
- survivor count (dose: 2.0 mg/kg/injection, schedule: Q01DX009 (ip), vehicle: DMSO): 6 of 6
- survivor count (dose: 4.0 mg/kg/injection, schedule: Q01DX009 (ip), vehicle: DMSO): 4 of 6
- survivor count (dose: 8.0 mg/kg/injection, schedule: Q01DX009 (ip), vehicle: DMSO): 2 of 6

SMILES: CN(C)CCCN1c2ccccc2Cc2ccccc21
- survivor count [1]: 2 of 6

SMILES: CC([OH2+])CNCCN.CC([OH2+])CNCCN.O=[N+]([O-])[O-].[Ni+2] (configuration not stated)
- survivor count (dose: 25.0 mg/kg/injection, schedule: Q01DX009 (ip), vehicle: saline): 6 of 6
- survivor count [2]: 6 of 6

SMILES: Nc1ccc(-c2c3ccccc3nc3cc(N)ccc23)cc1
- survivor count (dose: 200.0 mg/kg/injection, schedule: Q01DX005 (ip), vehicle: saline): 1 of 5

SMILES: CC(C)(C)N1COC2CCCCC21 (configuration not stated)
- survivor count (dose: 120.0 mg/kg/injection, schedule: Q01DX005 (ip), vehicle: Klucel (hydroxypropylcellulose) (HPC)): 4 of 6

SMILES: CCCCc1n(O)c(-c2ccccc2)c(C)[n+]1[O-]
- survivor count [3]: 6 of 6
- survivor count [4]: 4 of 6

SMILES: C[C@@H]1CC[C@]2(C)CC[C@]3(C)C(=CC[C@@H]4[C@@]5(C)CC[C@@H](OC(=O)c6ccc(O)cc6)C(C)(C)[C@@H]5C[C@H](O)[C@]43C)[C@@H]2[C@H]1C(=O)O
- T/C (dose: 0.02 mg/kg/injection, schedule: Q01DX009 (ip), vehicle: saline with Tween-80): 130 % of control
- T/C (dose: 0.05 mg/kg/injection, schedule: Q01DX009 (ip), vehicle: saline with Tween-80): 130 % of control
- T/C (dose: 0.1 mg/kg/injection, schedule: Q01DX009 (ip), vehicle: saline with Tween-80): 144 % of control
- survivor count (dose: 0.5 mg/kg/injection, schedule: Q01DX009 (ip), vehicle: Klucel (hydroxypropylcellulose) (HPC)): 6 of 6
- survivor count (dose: 1.0 mg/kg/injection, schedule: Q01DX009 (ip), vehicle: Klucel (hydroxypropylcellulose) (HPC)): 5 of 6
- survivor count (dose: 2.0 mg/kg/injection, schedule: Q01DX009 (ip), vehicle: Klucel (hydroxypropylcellulose) (HPC)): 2 of 6
- survivor count (dose: 4.0 mg/kg/injection, schedule: Q01DX009 (ip), vehicle: Klucel (hydroxypropylcellulose) (HPC)): 0 of 6
- T/C (dose: 100.0 micrograms/kg/injection, schedule: Q01DX009 (ip), vehicle: saline with Tween-80): 127 % of control
- T/C (dose: 200.0 micrograms/kg/injection, schedule: Q01DX009 (ip), vehicle: saline with Tween-80): 136 % of control

SMILES: O=C1OC2(CCCC2)OC(=O)C1=Cc1ccc([N+](=O)[O-])s1
- survivor count [4]: 3 of 6

SMILES: CN(C)C(=S)S(=O)(=O)CCCCCCS(=O)(=O)C(=S)N(C)C
- survivor count (dose: 400.0 mg/kg/injection, schedule: Q04DX002 (ip), vehicle: Klucel (hydroxypropylcellulose) (HPC)): 0 of 6

SMILES: Cc1nc([N+](=O)[O-])c(Sc2nncc(-c3ccccc3)n2)n1C
- survivor count [5]: 6 of 6

SMILES: Clc1nc(Cl)nc(-c2cn(-c3ccccc3)c3ccccc23)n1
- survivor count [3]: 6 of 6
- survivor count [4]: 6 of 6
- survivor count (dose: 400.0 mg/kg/injection, schedule: Q01DX009 (ip), vehicle: saline with Tween-80): 6 of 6

SMILES: O=C(N/N=C/c1cccnc1)C(=O)Nc1cccc(C(F)(F)F)c1
- survivor count (dose: 50.0 mg/kg/injection, schedule: Q01DX005 (ip), vehicle: Klucel (hydroxypropylcellulose) (HPC)): 6 of 6
- survivor count (dose: 100.0 mg/kg/injection, schedule: Q01DX005 (ip), vehicle: Klucel (hydroxypropylcellulose) (HPC)): 6 of 6
- survivor count [5]: 6 of 6

SMILES: CCOC(=O)Cn1/c(=N/N=C(\C)c2ccc([N+](=O)[O-])o2)sc2cc(Cl)ccc21
- survivor count (dose: 60.0 mg/kg/injection, schedule: Q01DX005 (ip), vehicle: Klucel (hydroxypropylcellulose) (HPC)): 5 of 6

SMILES: N#CCc1nc2ccccc2s1
- survivor count [6]: 0 of 6

SMILES: CCCCN(CCCC)CC(O)c1ccc(F)c2ccccc12 (configuration not stated)
- survivor count [1]: 0 of 5

SMILES: O=C(c1cc2c(cc1[N+](=O)[O-])OCO2)N1CCc2ccccc21
- T/C (dose: 12.5 mg/kg/injection, schedule: Q01DX009 (ip), vehicle: other): 130 % of control

SMILES: CCCCCCC[CH2][Sn]([CH2]CCCCCCC)([S]CC(=O)OCCCC)[S]CC(=O)OCCCC
- survivor count [2]: 4 of 6

SMILES: CCCCCC1C(=O)CNC1(C(=O)OCC)C(=O)OCC (configuration not stated)
- survivor count (dose: 50.0 mg/kg/injection, schedule: Q01DX009 (ip), vehicle: Klucel (hydroxypropylcellulose) (HPC)): 6 of 6

SMILES: N#CC1OC1c1cccnc1 (configuration not stated)
- survivor count (dose: 50.0 mg/kg/injection, schedule: Q01DX005 (ip), vehicle: saline with Tween-80): 0 of 6
- survivor count (dose: 100.0 mg/kg/injection, schedule: Q01DX005 (ip), vehicle: saline with Tween-80): 0 of 6
- survivor count [1]: 0 of 6

SMILES: CCC(C)CCC/C=C/CC(=O)NC(CC(=O)O)C(=O)NC(C(=O)NC(CC(=O)O)C(=O)NCC(=O)NC(CC(=O)O)C(=O)NCC(=O)NC(C(=O)NC(C(=O)N1CCCC1C(=O)NC(C)C1NC(=O)C2CCCCN2C1=O)C(C)C)C(C)N)C(C)C(=O)O (configuration not stated)
- survivor count (dose: 200.0 mg/kg/injection, schedule: Q01DX009 (ip), vehicle: saline + alcohol): 6 of 6
- survivor count (dose: 400.0 mg/kg/injection, schedule: Q01DX009 (ip), vehicle: saline + alcohol): 1 of 6

SMILES: C[n+]1c2ccccc2cc2[nH]c3ccccc3c21
- survivor count (dose: 12.5 mg/kg/injection, schedule: Q01DX005 (ip), vehicle: Klucel + Tween-80): 6 of 6
- survivor count (dose: 25.0 mg/kg/injection, schedule: Q01DX005 (ip), vehicle: Klucel + Tween-80): 2 of 6
- survivor count (dose: 50.0 mg/kg/injection, schedule: Q01DX005 (ip), vehicle: Klucel + Tween-80): 0 of 6
- survivor count (dose: 100.0 mg/kg/injection, schedule: Q01DX005 (ip), vehicle: Klucel + Tween-80): 0 of 6
- survivor count (dose: 200.0 mg/kg/injection, schedule: Q01DX005 (ip), vehicle: Klucel + Tween-80): 0 of 6

SMILES: CC12CCC(N3CCCC3)CC1=CCC1C2CCC2(C)C1CCCN2CCO (configuration not stated)
- survivor count (dose: 100.0 mg/kg/injection, schedule: Q01DX001 (ip), vehicle: Klucel (hydroxypropylcellulose) (HPC)): 3 of 5
- survivor count (dose: 200.0 mg/kg/injection, schedule: Q01DX001 (ip), vehicle: Klucel (hydroxypropylcellulose) (HPC)): 0 of 5
- survivor count (dose: 400.0 mg/kg/injection, schedule: Q01DX001 (ip), vehicle: Klucel (hydroxypropylcellulose) (HPC)): 0 of 5

SMILES: C1=CC=CCC=C1
- T/C (dose: 25.0 mg/kg/injection, schedule: Q01DX009 (ip), vehicle: saline with Tween-80): 130 % of control
- T/C [7]: 135 % of control

SMILES: NC(=O)C1C=CN(Cc2ccccc2)C=C1
- T/C (dose: 120.0 mg/kg/injection, schedule: Q01DX005 (ip), vehicle: saline with Tween-80): 130 % of control
- survivor count [6]: 2 of 6

SMILES: CCOC(=O)c1ccc(NC(=O)O/N=C/c2ccncc2)cc1
- survivor count [7]: 6 of 6

SMILES: CCN1c2ccccc2S(=O)(=O)n2c(Cc3ccccc3)nnc21
- survivor count (dose: 400.0 mg/kg/injection, schedule: Q01DX001 (ip), vehicle: saline with Tween-80): 6 of 6
